{"source": "PubChem BioAssay AID248", "about": "(DTP/NCI, 2004)", "test_system": "L1210 leukemia ip in BDF1 mice, survival T/C", "assay": "NCI In Vivo Anticancer Drug Screen. Data for tumor model L1210 Leukemia (intraperitoneal) in B6D2F1 (BDF1) mice", "settings": "T/C endpoint: mean survival time, higher T/C = longer survival", "key": {"[1]": {"settings": "dose: 10.0 mg/kg/injection, schedule: Q01DX009 (ip), vehicle: saline"}, "[2]": {"settings": "dose: 10.6 mg/kg/injection, schedule: Q04DX003 (ip), vehicle: saline"}, "[3]": {"settings": "dose: 16.0 mg/kg/injection, schedule: Q01DX001 (ip), vehicle: saline"}}, "note": "The list does not hold the whole screen: it gathers tests that were run many times, whatever their T/C, doses with no T/C, and many T/C values between a quarter and a half above the control. Further doses and runs are listed elsewhere. T/C gives the treated animals as a percentage of the vehicle group. Some entries give survivors of the animals treated and no T/C: the source holds a T/C of zero for them, seemingly a mark for toxic or unscored doses. Some survivor counts are full or nearly so, which does not show that the dose was tolerated: the source hardly ever lists a survival T/C far under the control, and the zero likely stands for such cases as well. Survivors were counted at the toxicity check, usually on the fifth day, unless a day is given; later deaths do not show. Schedule codes are those of the source, taken here to give the interval after Q, in days (D) or hours (H), and the number of doses after X. Where survival is the endpoint, this PubChem deposit counts one and a half times the control or more as active, and values a quarter to a half above the control carry no call in these data; other NCI protocols may use other cut-offs. Some doses were run more than once; their values stand side by side, smallest first. Some T/C values carry the count of animals alive at the toxicity check (mostly the fifth day); where none is given, no animal had died by that day.", "data": [{"smiles": "OC(C1CO1)C(O)C1CO1", "note": "(stereo not drawn)", "values": [{"measurement": "T/C", "setting": "dose: 0.25 mg/kg/injection, schedule: Q03HX024 (ip), vehicle: saline", "value": "127 % of control"}, {"measurement": "T/C", "setting": "dose: 0.5 mg/kg/injection, schedule: Q03HX016 (ip), vehicle: saline", "value": "132 % of control"}, {"measurement": "T/C", "setting": "dose: 0.5 mg/kg/injection, schedule: Q03HX024 (ip), vehicle: saline", "value": "137 % of control [9 of 10 alive]"}, {"measurement": "T/C", "setting": "dose: 0.8 mg/kg/injection, schedule: Q01DX009 (ip), vehicle: saline", "value": "125 and 144 % of control"}, {"measurement": "T/C", "setting": "dose: 1.0 mg/kg/injection, schedule: Q01DX009 (ip), vehicle: saline", "value": "130 % of control"}, {"measurement": "T/C", "setting": "dose: 1.0 mg/kg/injection, schedule: Q03HX008 (ip), vehicle: saline", "value": "147 % of control"}, {"measurement": "T/C", "setting": "dose: 1.08 mg/kg/injection, schedule: Q01DX009 (ip), vehicle: water", "value": "128 % of control"}, {"measurement": "T/C", "setting": "dose: 1.6 mg/kg/injection, schedule: Q01DX009 (ip), vehicle: saline", "value": "127 % of control"}, {"measurement": "T/C", "setting": "dose: 1.8 mg/kg/injection, schedule: Q01DX009 (ip), vehicle: saline", "value": "141 % of control"}, {"measurement": "T/C", "setting": "dose: 1.8 mg/kg/injection, schedule: Q01DX009 (ip), vehicle: water", "value": "147 % of control"}, {"measurement": "T/C", "setting": "dose: 2.0 mg/kg/injection, schedule: Q01DX009 (ip), vehicle: saline, evaluated on day 30", "value": "141, 150, 157 % of control"}, {"measurement": "T/C", "setting": "dose: 2.0 mg/kg/injection, schedule: Q01DX009 (ip), vehicle: saline, evaluated on day 60", "value": "159 % of control"}, {"measurement": "T/C", "setting": "dose: 2.0 mg/kg/injection, schedule: Q01DX009 (oral), vehicle: saline", "value": "126 % of control"}, {"measurement": "T/C", "setting": "dose: 2.0 mg/kg/injection, schedule: Q01DX009 (sc), vehicle: saline", "value": "127 % of control"}, {"measurement": "T/C", "setting": "dose: 2.0 mg/kg/injection, schedule: Q04DX003 (ip), vehicle: saline, evaluated on day 30", "value": "130 % of control"}, {"measurement": "T/C", "setting": "dose: 2.0 mg/kg/injection, schedule: Q04DX003 (ip), vehicle: saline, evaluated on day 60", "value": "141 % of control"}, {"measurement": "T/C", "setting": "dose: 2.2 mg/kg/injection, schedule: Q01DX001 (ip), vehicle: saline", "value": "128 and 130 % of control"}, {"measurement": "T/C", "setting": "dose: 4.0 mg/kg/injection, schedule: Q01DX001 (ip), vehicle: saline", "value": "134 % of control"}, {"measurement": "T/C", "setting": "dose: 4.0 mg/kg/injection, schedule: Q01DX009 (oral), vehicle: saline", "value": "135 % of control"}, {"measurement": "T/C", "setting": "dose: 4.0 mg/kg/injection, schedule: Q01DX009 (sc), vehicle: saline", "value": "128 % of control"}, {"measurement": "survivor count", "setting": "dose: 4.0 mg/kg/injection, schedule: Q03HX008 (ip), vehicle: saline", "value": "1 of 10"}, {"measurement": "survivor count", "setting": "dose: 4.0 mg/kg/injection, schedule: Q03HX016 (ip), vehicle: saline", "value": "2 of 10"}, {"measurement": "survivor count", "setting": "dose: 4.0 mg/kg/injection, schedule: Q03HX024 (ip), vehicle: saline", "value": "6 of 10"}, {"measurement": "T/C", "setting": "dose: 4.6 mg/kg/injection, schedule: Q01DX001 (ip), vehicle: saline", "value": "145 % of control"}, {"measurement": "T/C", "setting": "dose: 5.0 mg/kg/injection, schedule: Q01DX001 (ip), vehicle: saline", "value": "149 % of control"}, {"measurement": "T/C", "setting": "dose: 5.0 mg/kg/injection, schedule: Q01DX009 (ip), vehicle: saline", "value": "149 % of control"}, {"measurement": "T/C", "setting": "dose: 6.25 mg/kg/injection, schedule: Q01DX009 (ip), vehicle: water, evaluated on day 5", "value": "142 % of control"}, {"measurement": "T/C", "setting": "dose: 6.25 mg/kg/injection, schedule: Q01DX009 (ip), vehicle: water, evaluated on day 30", "value": "142 % of control"}, {"measurement": "survivor count", "setting": "dose: 6.4 mg/kg/injection, schedule: Q01DX009 (ip), vehicle: saline", "value": "6 of 6"}, {"measurement": "survivor count", "setting": "dose: 7.0 mg/kg/injection, schedule: Q01DX009 (ip), vehicle: saline", "value": "6 of 6"}, {"measurement": "T/C", "setting": "dose: 7.5 mg/kg/injection, schedule: Q01DX001 (ip), vehicle: saline", "value": "133 % of control"}, {"measurement": "T/C", "setting": "dose: 8.0 mg/kg/injection, schedule: Q01DX001 (sc), vehicle: saline", "value": "125 % of control"}, {"measurement": "survivor count", "setting": "dose: 8.0 mg/kg/injection, schedule: Q01DX009 (ip), vehicle: saline", "value": "10 of 10"}, {"measurement": "survivor count", "setting": "dose: 8.0 mg/kg/injection, schedule: Q01DX009 (oral), vehicle: saline", "value": "7 of 10"}, {"measurement": "survivor count", "setting": "dose: 8.0 mg/kg/injection, schedule: Q01DX009 (sc), vehicle: saline", "value": "5 of 10"}, {"measurement": "survivor count", "setting": "dose: 8.0 mg/kg/injection, schedule: Q03HX008 (ip), vehicle: saline", "value": "1 of 10"}, {"measurement": "survivor count", "setting": "dose: 8.0 mg/kg/injection, schedule: Q03HX016 (ip), vehicle: saline", "value": "0 of 10"}, {"measurement": "T/C", "setting": "dose: 8.0 mg/kg/injection, schedule: Q04DX003 (ip), vehicle: saline", "value": "130 % of control"}, {"measurement": "survivor count", "setting": "dose: 8.4 mg/kg/injection, schedule: Q01DX009 (ip), vehicle: water", "value": "8 of 8"}, {"measurement": "T/C", "setting": "dose: 10.0 mg/kg/injection, schedule: Q01DX001 (ip), vehicle: saline, evaluated on day 30", "value": "146 and 221 % of control"}, {"measurement": "T/C", "setting": "dose: 10.0 mg/kg/injection, schedule: Q01DX001 (ip), vehicle: saline, evaluated on day 60", "value": "148, 195, 209, 210, 211, 224 % of control"}, {"measurement": "T/C", "setting": "[1]", "value": "142 % of control"}, {"measurement": "survivor count", "setting": "[1]", "value": "3 of 6"}, {"measurement": "T/C", "setting": "dose: 10.0 mg/kg/injection, schedule: Q04DX003 (ip), vehicle: saline", "value": "145 % of control"}, {"measurement": "survivor count", "setting": "dose: 10.6 mg/kg/injection, schedule: Q01DX009 (ip), vehicle: saline", "value": "5 of 6"}, {"measurement": "T/C", "setting": "[2]", "value": "134 % of control"}, {"measurement": "survivor count", "setting": "[2]", "value": "4 of 6"}, {"measurement": "T/C", "setting": "dose: 10.6 mg/kg/injection, schedule: Q08DX002 (ip), vehicle: saline", "value": "149 % of control [5 of 6 alive]"}, {"measurement": "T/C", "setting": "dose: 12.5 mg/kg/injection, schedule: Q01DX001 (ip), vehicle: saline", "value": "150, 166, 290, 293, 295, 378 % of control"}, {"measurement": "survivor count", "setting": "dose: 14.0 mg/kg/injection, schedule: Q01DX001 (ip), vehicle: saline", "value": "3 of 6"}, {"measurement": "survivor count", "setting": "dose: 14.0 mg/kg/injection, schedule: Q01DX009 (ip), vehicle: water", "value": "7 of 8"}, {"measurement": "T/C", "setting": "dose: 15.0 mg/kg/injection, schedule: Q01DX001 (ip), vehicle: saline, evaluated on day 30", "value": "201 % of control"}, {"measurement": "T/C", "setting": "dose: 15.0 mg/kg/injection, schedule: Q01DX001 (ip), vehicle: saline, evaluated on day 60", "value": "228, 240, 370, 373, 387, 395 % of control"}, {"measurement": "survivor count", "setting": "dose: 15.0 mg/kg/injection, schedule: Q01DX009 (ip), vehicle: saline", "value": "6 of 6"}, {"measurement": "T/C", "setting": "[3]", "value": "126 % of control"}, {"measurement": "survivor count", "setting": "[3]", "value": "4 of 6"}, {"measurement": "survivor count", "setting": "dose: 16.0 mg/kg/injection, schedule: Q01DX001 (oral), vehicle: saline", "value": "3 of 10"}, {"measurement": "survivor count", "setting": "dose: 16.0 mg/kg/injection, schedule: Q01DX009 (ip), vehicle: saline", "value": "5 of 6"}]}]}
